From the supplement of paper PMC3682954
Structures can show the parent of a compound that is named as a salt. ± gives the standard deviation of the averaged measurements. The list shows a part of the results. Repeats are few or missing, and single values can be far off.

Test system: RAW 264.7
Assay: HMGB1-induced TNF-alpha production relative to HMGB1-stimulated control; higher = more TNF-alpha secretion (less inhibition)
Details: stimulus: HMGB1 5 ug/ml, 18 h
[1] = compound concentration: 1 ug/ml

Structure (SMILES)	HMGB1-induced TNF-alpha production (compound concentration: 3 uM) [%]	HMGB1-induced TNF-alpha production [1] [%]
Nc1nc(=S)c2ncn([C@@H]3O[C@H](CO)[C@@H](O)[C@H]3O)c2[nH]1 [Thioguanosine]	61.4	–
O=c1cc(-c2ccc(O)cc2)oc2cc(O)cc(O)c12 [Apigenin]	89.6	68.8
CO[C@H]1/C=C/O[C@@]2(C)Oc3c(C)c(O)c4c(c3C2=O)C2=NC3(CCN(CC(C)C)CC3)NC2=C(NC(=O)/C(C)=C\C=C\[C@H](C)[C@H](O)[C@@H](C)[C@@H](O)[C@@H](C)[C@H](OC(C)=O)[C@@H]1C)C4=O	106	–
CO[C@H]1/C=C/O[C@@]2(C)Oc3c(C)c(O)c4c(c3C2=O)C2=NC3(CCN(CC(C)C)CC3)NC2=C(NC(=O)/C(C)=C\C=C\[C@H](C)[C@H](O)[C@@H](C)[C@@H](O)[C@@H](C)[C@H](OC(C)=O)[C@@H]1C)C4=O [Rifabutin]	104	–
NC[C@H]1O[C@@H](n2cnc3c(N)ncnc32)[C@H](O)[C@@H]1O [5'-Amino-5'-deoxyadenosine p-toluenesulfonate salt]	90.5	–
C[C@@H](N)[C@H]1CC[C@H](C(=O)Nc2ccncc2)CC1	86.6	–
O=C(Cn1ccnc1[N+](=O)[O-])NCCO	82.76 ± 0.31	–
O=C(Cn1ccnc1[N+](=O)[O-])NCCO [Etanidazole]	90.1	–
CC(=O)OCC(COC(C)=O)OC(C)=O	93.9	–
COc1ccc(CCNc2nc(Cl)nc(N3CC4CC(C3)c3cccc(=O)n3C4)n2)cc1OC (stereo not drawn)	–	86
CN(C)CCN(Cc1cccs1)c1ccccn1 [Methapyrilene hydrochloride]	95.4 ± 32	–
CN(C)CCN(Cc1cccs1)c1ccccn1	106	–
COc1c(O[C@@H]2O[C@H](CO)[C@@H](O)[C@H](O)[C@H]2O)cc2c(c1OC)-c1ccc(SC)c(=O)cc1[C@@H](NC(C)=O)CC2 [Thiocolchicoside]	67.9	–
Cn1c(=O)[nH]c2c([nH]c(=O)n2C)c1=O [1,9-dimethyluric acid]	–	59.1
Clc1ccc(C(Cn2ccnc2)OCc2c(Cl)cccc2Cl)c(Cl)c1 (stereo not drawn) [Isoconazole]	49.6	–
NCCC[C@H](N)C(=O)O	91.3	–
CCOC(=O)C1=C(C)NC(C)=C(C(=O)OCC)C1c1c(F)c(F)c(F)c(F)c1F [Nemadipine-A]	101	–
NC(=O)N1c2ccccc2C=Cc2ccccc21 [Carbamazepine]	88.1 ± 6.7	–
NC(=O)N1c2ccccc2C=Cc2ccccc21	102	–
CCn1cc(C(=O)O)c(=O)c2cnc(N3CCNCC3)nc21 [Pipemidic acid]	111	–

Structure (SMILES)	HMGB1-induced TNF-alpha production (compound concentration: 3 uM) [%]	HMGB1-induced TNF-alpha production [1] [%]
CCn1cc(C(=O)O)c(=O)c2cnc(N3CCNCC3)nc21	88.2	–
NCCS(=O)(=O)O	88.6	–
NCCS(=O)(=O)O [Taurine]	112	–
COc1cc2nc(N3CCN(C(=O)c4ccco4)CC3)nc(N)c2cc1OC [Prazosin]	99.9 ± 7.8	–
COc1cc2nc(N3CCN(C(=O)c4ccco4)CC3)nc(N)c2cc1OC	77.8	–
COc1cc2nc(N3CCN(C(=O)c4ccco4)CC3)nc(N)c2cc1OC [Prazosin hydrochloride]	98.5 ± 9	81.4
N#CC(C#N)=C(N)/C(C#N)=C/c1ccc(O)cc1 [Tyrphostin AG 112]	94.4	–
COc1cccc(-c2cc(=O)c3ccc(O)cc3o2)c1 [7-Hydroxy-3'-methoxyflavone]	–	71.8
COc1ccc2c(C)cc(=O)oc2c1OC [7,8-Dimethoxy-4-methylcoumarin]	–	83.1
COc1nc(C)nc(Cl)c1NC1=NCCN1 [Moxonidine]	101	–
COc1nc(C)nc(Cl)c1NC1=NCCN1 [Moxonidine hydrochloride]	107	–
COc1nc(C)nc(Cl)c1NC1=NCCN1	104	–
Cc1ccc(S(=O)(=O)NC(=O)NN2CC3CCCC3C2)cc1 (stereo not drawn)	83.6	–
Cc1ccc(S(=O)(=O)NC(=O)NN2CC3CCCC3C2)cc1 (stereo not drawn) [Gliclazide]	86.4 ± 20	–
COc1ccc(-c2cc(=O)c3c(O)cc(O)cc3o2)cc1 [Acacetin]	–	76.8
c1ccc(C(NCCNC(c2ccccc2)c2ccccc2)c2ccccc2)cc1	90.7	–
CC(=O)N[C@@H](CC(=O)N[C@@H](CCC(=O)O)C(=O)O)C(=O)O [Spaglumic acid]	109	–
CC(=O)N[C@@H](CC(=O)N[C@@H](CCC(=O)O)C(=O)O)C(=O)O	78.3	–
O=c1c(O)c(-c2cc(O)c(O)c(O)c2)oc2cc(O)cc(O)c12 [Myricetin]	123	66.6
O=c1[nH]c2ccccc2c2ccccc12 [6(5H)-Phenanthridinone]	106	–

Quoted from the listing.
HMGB1-induced TNF-alpha production (compound concentration: 3 uM) [%], O=c1c(O)c(-c2cc(O)c(O)c(O)c2)oc2cc(O)cc(O)c12 [Myricetin] is entered as 123
HMGB1-induced TNF-alpha production [1] [%], COc1ccc(-c2cc(=O)c3c(O)cc(O)cc3o2)cc1 [Acacetin] is entered as 76.8
